From PMC12733253, “NFE2 Truncation Mutants Protect Wild-Type NFE2 from ITCH-Dependent Degradation” (International Journal of Molecular Sciences, 2025)
Results are given in words; binding and its absence hold for the method and conditions named. In cells and extracts the contact can be indirect. Some binding calls cover weakened binding; strength is not graded here. Tags and fused reporters may be left off the sequences shown.

The chains behind the UniProt entries cited, without tags or fusion partners. Where a name states a change or a piece, a line headed by the entry shows the natural chain unless it says otherwise. A line that says so, or that is headed by a name, gives the form on record, which may keep a tag or linker.
itchy E3 ubiquitin protein ligase (ITCH), wild type, MYC-tagged (Q96J02-2, form named): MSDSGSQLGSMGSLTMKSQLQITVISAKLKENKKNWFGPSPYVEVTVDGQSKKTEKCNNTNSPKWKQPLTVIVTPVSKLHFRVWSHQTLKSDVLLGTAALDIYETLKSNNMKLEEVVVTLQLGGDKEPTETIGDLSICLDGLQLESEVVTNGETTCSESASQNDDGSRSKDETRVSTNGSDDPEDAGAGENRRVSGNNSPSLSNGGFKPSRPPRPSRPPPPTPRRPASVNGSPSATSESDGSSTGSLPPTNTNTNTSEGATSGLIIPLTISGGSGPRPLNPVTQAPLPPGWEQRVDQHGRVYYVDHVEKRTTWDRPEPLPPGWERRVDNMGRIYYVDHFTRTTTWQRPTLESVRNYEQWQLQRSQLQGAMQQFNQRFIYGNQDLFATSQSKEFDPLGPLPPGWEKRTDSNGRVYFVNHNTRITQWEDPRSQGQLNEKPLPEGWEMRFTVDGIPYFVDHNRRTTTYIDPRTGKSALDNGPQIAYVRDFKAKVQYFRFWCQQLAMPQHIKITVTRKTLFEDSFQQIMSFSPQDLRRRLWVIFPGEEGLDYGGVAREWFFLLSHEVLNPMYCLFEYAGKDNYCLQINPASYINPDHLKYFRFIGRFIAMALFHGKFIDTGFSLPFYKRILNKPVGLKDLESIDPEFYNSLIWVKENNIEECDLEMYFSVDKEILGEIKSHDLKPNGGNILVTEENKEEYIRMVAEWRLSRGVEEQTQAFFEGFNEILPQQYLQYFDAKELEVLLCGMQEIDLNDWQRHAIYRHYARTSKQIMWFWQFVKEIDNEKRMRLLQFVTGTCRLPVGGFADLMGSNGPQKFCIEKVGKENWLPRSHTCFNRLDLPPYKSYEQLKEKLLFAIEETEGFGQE

T1: NFE2-Δ297-300, HA-tagged (human) (UniProt Q16621)
T1 sequence: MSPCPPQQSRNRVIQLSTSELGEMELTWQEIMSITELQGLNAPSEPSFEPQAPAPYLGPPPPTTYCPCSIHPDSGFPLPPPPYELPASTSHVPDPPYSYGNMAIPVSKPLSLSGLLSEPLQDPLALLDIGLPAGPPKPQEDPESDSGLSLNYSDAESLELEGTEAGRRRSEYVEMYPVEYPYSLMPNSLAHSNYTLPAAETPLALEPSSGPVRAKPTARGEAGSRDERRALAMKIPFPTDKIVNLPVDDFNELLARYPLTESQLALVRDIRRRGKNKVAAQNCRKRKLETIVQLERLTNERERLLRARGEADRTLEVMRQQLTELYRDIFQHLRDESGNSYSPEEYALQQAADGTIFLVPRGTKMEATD

T2: wild-type nuclear factor erythroid 2 (NFE2), HA-tagged (human) (UniProt Q16621)
T2 sequence: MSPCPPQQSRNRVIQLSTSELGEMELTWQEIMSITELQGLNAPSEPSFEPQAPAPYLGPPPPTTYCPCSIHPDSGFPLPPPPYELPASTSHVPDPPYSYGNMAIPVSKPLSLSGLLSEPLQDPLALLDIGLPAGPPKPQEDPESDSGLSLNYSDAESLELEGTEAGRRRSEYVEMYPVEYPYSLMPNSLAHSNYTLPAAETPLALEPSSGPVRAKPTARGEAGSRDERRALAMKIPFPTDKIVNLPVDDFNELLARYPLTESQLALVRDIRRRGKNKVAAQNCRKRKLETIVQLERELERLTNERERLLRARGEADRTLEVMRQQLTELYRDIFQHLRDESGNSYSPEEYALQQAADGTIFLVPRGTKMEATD

B1: wild-type nuclear factor erythroid 2 (NFE2), HA-tagged (natural protein, human, UniProt Q16621 1-373, looked up)
chain: T2 sequence
B2: NFE2-Δ297-300, HA-tagged (protein, UniProt Q16621)
chain: T1 sequence

What was measured:
[1] = target: T1, NFE2-Δ297-300, HA-tagged (human); assay: co-IP; HEK-293T co-transfected with MYC-tagged ITCH and HA-tagged NFE2 construct, RIPA lysate 36 h after transfection; IP with anti-HA magnetic beads (Pierce HA-Tag Magnetic IP/Co-IP Kit); blots probed for NFE2 and MYC
[2] = target: T2, wild-type nuclear factor erythroid 2 (NFE2), HA-tagged (human); assay: as above
[3] = target: itchy E3 ubiquitin protein ligase (ITCH), wild type, MYC-tagged (UniProt Q96J02); assay: co-IP; HEK-293T co-transfected with MYC-tagged ITCH and HA-tagged NFE2 construct, RIPA lysate 36 h after transfection; IP with anti-MYC magnetic beads (Pierce Myc-Tag Magnetic IP/Co-IP Kit); blots probed for NFE2 and MYC
[4] = target: itchy E3 ubiquitin protein ligase (ITCH), wild type, MYC-tagged (UniProt Q96J02); assay: proximity ligation; HEK-293T co-transfected (PEI) with MYC-ITCH and NFE2 construct, fixed with 2% formalin, permeabilized with 0.2% Triton X-100; Duolink In Situ Red kit with antibodies marking NFE2 and ITCH; control: MYC-ITCH alone

| Molecule | binding [1] | binding [2] | binding [3] | binding [4] |
| --- | --- | --- | --- | --- |
| itchy E3 ubiquitin protein ligase (ITCH), wild type, MYC-tagged (from UniProt Q96J02-2 1-862) (enzyme) | binds | binds |  |  |
| B1 |  |  | binds | binds |
| B2 |  |  | binds | binds |
